# Measured values: patent publication US20230000998A1
# No constants are given. Whether binding was seen depends on the method and setting. Some results given as binding are weak or reduced against the parent protein; the word gives no strength. Sequences can lack the tags named with a protein.
# B1: VNAR-Fc control conjugate (TXB4 fused to the N-terminal end of the Fc domain) (Fc fusion, not shown: a dimerising Fc or GST)
# chain: ARVDQTPQTITKETGESLTINCVLRDSNCALSSTYWYRKKSGSTNEENISKGGRYVETVNSGSKSFSLRINDLTVEDSGTYRCNVVQYPQYPNYFWCDVYGDGTAVTVNA
# Molecular target: cynomolgus TfR-1 (transferrin receptor 1), purified recombinant (cynomolgus)
# Test: kinetic ELISA on coated recombinant TfR-1
binder,measurement,value
B1,binding,binds
